HELM strings list residues between dots; [ac] is acetyl, [am] amide, other brackets name non-standard units. Non-standard residues stand in square brackets, D forms with d. Dmt = Cc1cc(O)cc(C)c1C[C@H](N)C(=O)O; d(β3hA) = C[C@@H](N)CC(=O)O
Experiment: peptide made by a vendor
Settings: whole synthesis, analytical RP-HPLC

Substance | final HPLC purity [%]
PEPTIDE1{Y.[D-Pip].F.F.[am]}$$$$V2.0 | 97
PEPTIDE1{[Dmt].[D-Pip].F.F.[am]}$$$$V2.0 | 96
PEPTIDE1{[Dmt].P.[Rb2Nal].F.[am]}$$$$V2.0 | 96
PEPTIDE1{[Dmt].P.[Rb3Nal].F.[am]}$$$$V2.0 | 98
H-Y[d(β3hA)]FF-NH2 (N-terminus assumed; SMILES C[C@H](CC(=O)N[C@@H](Cc1ccccc1)C(=O)N[C@@H](Cc1ccccc1)C(N)=O)NC(=O)[C@@H](N)Cc1ccc(O)cc1) | 97
PEPTIDE1{Y.P.[Rb2Nal].F.[am]}$$$$V2.0 | 97
PEPTIDE1{Y.[RNip].F.F.[am]}$$$$V2.0 | 98
PEPTIDE1{Y.P.[Rb3Nal].F.[am]}$$$$V2.0 | 96
PEPTIDE1{[Dmt].[Rb2Ala].F.F.[am]}$$$$V2.0 | 97
PEPTIDE1{[Dmt].[RNip].F.F.[am]}$$$$V2.0 | 98
PEPTIDE1{[Dmt].P.F.F.[am]}$$$$V2.0 | 97
H-[Dmt][d(β3hA)]FF-NH2 (N-terminus assumed; SMILES Cc1cc(O)cc(C)c1C[C@H](N)C(=O)N[C@H](C)CC(=O)N[C@@H](Cc1ccccc1)C(=O)N[C@@H](Cc1ccccc1)C(N)=O) | 96
PEPTIDE1{Y.[Rb2Ala].F.F.[am]}$$$$V2.0 | 96

— paper PMC9998502 (Frontiers in Pharmacology, 2023)
